Source: paper PMC7862700
The list shows a part of the results, in another mix than the full data. At the low end of the ranking the order means little.

Sequences of proteins named here, by UniProt entry; tags and fusion partners are left off. A change or cut given only in a name is not applied to a line headed by its entry.
UniProt O43186: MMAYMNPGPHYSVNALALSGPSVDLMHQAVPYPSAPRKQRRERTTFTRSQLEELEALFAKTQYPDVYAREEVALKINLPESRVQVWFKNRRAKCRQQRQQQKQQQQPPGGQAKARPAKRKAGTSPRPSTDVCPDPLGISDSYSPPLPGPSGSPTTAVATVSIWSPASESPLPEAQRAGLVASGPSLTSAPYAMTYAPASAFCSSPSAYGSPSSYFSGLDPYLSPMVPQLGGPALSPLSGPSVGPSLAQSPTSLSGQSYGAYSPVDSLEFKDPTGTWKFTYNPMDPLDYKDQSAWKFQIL

What was measured:
Assay in all cases: DAPPL (digital affinity profiling via proximity ligation, sequencing)
Settings in all cases: 10 mM Tris-HCl pH 7.5, 50 mM NaCl, 1 mM DTT, 4% glycerol, room temperature, 30 min; GST-TFs on glutathione beads, 16-mer random dsDNA library, 0.1% …; high values mean tight binding; double strand, one strand shown; scale: fold enrichment (6-mer frequency, TF over GST control)
FEV = molecular target: T1, FEV (UniProt Q99581)
T1 sequence: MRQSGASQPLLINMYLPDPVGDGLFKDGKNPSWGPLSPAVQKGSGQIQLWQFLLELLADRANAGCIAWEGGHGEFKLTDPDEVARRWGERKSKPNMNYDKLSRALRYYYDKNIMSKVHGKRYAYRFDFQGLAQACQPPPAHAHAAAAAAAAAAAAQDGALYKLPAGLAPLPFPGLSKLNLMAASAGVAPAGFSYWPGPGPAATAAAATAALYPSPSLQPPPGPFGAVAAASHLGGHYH

ELF5 = molecular target: T2, ELF5 (UniProt Q9UKW6-2)
T2 sequence: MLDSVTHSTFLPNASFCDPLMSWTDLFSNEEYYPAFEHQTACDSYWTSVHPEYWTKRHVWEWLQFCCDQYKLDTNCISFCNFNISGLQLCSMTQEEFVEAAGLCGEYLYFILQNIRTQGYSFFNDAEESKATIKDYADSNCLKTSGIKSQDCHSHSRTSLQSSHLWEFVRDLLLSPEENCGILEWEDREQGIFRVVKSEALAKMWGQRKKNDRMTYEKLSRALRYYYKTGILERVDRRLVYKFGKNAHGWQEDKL

CRX = CRX (UniProt O43186)

Sequence | binding signal (FEV) | binding signal (ELF5) | binding signal (CRX)
TAGCCG | 0.903 | 0.868 | –
GTTGGG | 0.684 | 0.719 | 0.564
CGGTAA | 0.964 | – | 0.951
GGGGAT | 0.607 | 0.637 | –
TCGTGG | 0.717 | 0.733 | 0.691
GGAAGG | 0.776 | – | 0.435
AGGGTG | 0.721 | 0.795 | 0.629
GAGGAA | 0.713 | – | 0.454
GGGATG | 0.914 | – | 0.77

Taken from above:
GGAAGG – binding signal (CRX): 0.435
TAGCCG – binding signal (ELF5): 0.868
